Source: patent US20120263730A1 (DEUTSCHES KREBSFORSCHUNGSZENTRUM, published 2012)
These are yes or no findings as the source states them, for the method shown. Some entries that bind do so weakly or less than the wild type. Where a sequence is shown, tags or fusion partners need not be part of it.

Biological target: T1, human Syndecan-4 (human) (UniProt P31431)
T1 sequence (chain, glycosaminoglycan chains (GAGs)): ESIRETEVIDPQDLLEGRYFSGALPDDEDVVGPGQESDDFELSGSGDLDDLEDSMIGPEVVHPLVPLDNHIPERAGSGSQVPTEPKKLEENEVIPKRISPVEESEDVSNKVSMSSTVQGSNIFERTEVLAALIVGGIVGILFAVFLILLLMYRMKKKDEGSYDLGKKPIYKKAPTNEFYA
Test: cell surface binding, AP fusion on transfected HEK293T cells

B1: hRspo3TSP-AP (signal peptide fused to the TSP domain aa146-209 of human Rspondin-3, followed by AP tag) (ligand, not shown: large carriers)
chain: VHCEVSEWNPWSPCTKKGKTCGFKRGTETRVREIIQHPSAKGNLCPPTNETRKCTVQRKKCQKG
- binding: binds
